Test results as given in the supplement of paper PMC10849652.
This is one part of the list.

Chains of the proteins cited; added tags and fusions are not shown. Lines headed by an entry give the natural chain unless they say otherwise; changes in a name come on top.
UniProt P20393: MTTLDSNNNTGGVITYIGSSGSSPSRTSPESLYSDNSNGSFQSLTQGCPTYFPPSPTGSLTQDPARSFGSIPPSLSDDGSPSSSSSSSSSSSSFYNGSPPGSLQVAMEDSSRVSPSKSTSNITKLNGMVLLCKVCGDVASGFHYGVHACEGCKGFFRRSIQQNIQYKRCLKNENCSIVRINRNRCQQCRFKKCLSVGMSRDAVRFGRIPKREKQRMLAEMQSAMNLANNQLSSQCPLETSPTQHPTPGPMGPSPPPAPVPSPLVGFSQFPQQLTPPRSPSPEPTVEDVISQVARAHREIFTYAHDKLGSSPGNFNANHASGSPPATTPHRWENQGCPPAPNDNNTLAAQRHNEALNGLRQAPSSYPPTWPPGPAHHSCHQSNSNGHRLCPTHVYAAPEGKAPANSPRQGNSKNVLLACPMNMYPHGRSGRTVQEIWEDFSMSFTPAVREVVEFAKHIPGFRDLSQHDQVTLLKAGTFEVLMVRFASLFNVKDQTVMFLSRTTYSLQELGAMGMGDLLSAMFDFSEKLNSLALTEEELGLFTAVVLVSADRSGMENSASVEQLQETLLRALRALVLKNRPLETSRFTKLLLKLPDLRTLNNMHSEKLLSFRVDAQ
UniProt Q9NWW6: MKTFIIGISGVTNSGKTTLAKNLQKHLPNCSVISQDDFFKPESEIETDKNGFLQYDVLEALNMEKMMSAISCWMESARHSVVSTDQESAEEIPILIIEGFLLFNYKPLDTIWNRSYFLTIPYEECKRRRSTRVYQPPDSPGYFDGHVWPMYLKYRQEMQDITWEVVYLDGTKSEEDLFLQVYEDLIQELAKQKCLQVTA
UniProt Q96T66: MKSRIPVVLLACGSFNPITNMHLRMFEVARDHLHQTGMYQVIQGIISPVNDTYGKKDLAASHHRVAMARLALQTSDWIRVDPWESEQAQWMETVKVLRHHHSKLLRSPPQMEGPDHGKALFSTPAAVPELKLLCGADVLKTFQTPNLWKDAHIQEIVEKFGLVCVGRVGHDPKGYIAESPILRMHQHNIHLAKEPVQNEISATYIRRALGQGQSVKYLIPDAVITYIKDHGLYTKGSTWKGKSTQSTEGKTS
UniProt Q9GZP1: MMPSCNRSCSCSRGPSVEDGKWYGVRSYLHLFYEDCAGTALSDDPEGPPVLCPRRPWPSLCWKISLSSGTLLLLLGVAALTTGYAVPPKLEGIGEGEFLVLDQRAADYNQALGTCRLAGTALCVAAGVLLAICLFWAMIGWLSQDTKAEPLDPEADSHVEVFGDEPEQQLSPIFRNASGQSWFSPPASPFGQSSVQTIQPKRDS
UniProt P04629: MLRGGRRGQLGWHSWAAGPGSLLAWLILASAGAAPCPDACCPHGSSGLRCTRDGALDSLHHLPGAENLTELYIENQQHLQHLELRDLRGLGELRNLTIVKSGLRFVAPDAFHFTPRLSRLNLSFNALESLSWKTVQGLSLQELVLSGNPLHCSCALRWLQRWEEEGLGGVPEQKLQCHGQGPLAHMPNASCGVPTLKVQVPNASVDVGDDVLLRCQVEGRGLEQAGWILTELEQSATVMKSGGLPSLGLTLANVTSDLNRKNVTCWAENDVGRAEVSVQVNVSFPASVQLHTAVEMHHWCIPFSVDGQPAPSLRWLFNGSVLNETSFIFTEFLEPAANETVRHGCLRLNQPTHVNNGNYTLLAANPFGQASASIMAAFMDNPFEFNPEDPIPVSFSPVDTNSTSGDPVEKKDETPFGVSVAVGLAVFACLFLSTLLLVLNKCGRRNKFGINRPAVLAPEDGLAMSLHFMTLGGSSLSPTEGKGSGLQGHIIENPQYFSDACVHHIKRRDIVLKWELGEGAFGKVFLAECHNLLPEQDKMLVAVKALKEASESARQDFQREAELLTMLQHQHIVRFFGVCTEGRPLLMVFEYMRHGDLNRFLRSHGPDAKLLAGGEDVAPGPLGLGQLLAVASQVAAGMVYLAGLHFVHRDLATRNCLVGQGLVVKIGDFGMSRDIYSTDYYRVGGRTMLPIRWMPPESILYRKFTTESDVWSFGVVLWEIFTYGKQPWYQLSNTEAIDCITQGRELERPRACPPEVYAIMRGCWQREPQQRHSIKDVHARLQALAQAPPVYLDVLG
UniProt P13056: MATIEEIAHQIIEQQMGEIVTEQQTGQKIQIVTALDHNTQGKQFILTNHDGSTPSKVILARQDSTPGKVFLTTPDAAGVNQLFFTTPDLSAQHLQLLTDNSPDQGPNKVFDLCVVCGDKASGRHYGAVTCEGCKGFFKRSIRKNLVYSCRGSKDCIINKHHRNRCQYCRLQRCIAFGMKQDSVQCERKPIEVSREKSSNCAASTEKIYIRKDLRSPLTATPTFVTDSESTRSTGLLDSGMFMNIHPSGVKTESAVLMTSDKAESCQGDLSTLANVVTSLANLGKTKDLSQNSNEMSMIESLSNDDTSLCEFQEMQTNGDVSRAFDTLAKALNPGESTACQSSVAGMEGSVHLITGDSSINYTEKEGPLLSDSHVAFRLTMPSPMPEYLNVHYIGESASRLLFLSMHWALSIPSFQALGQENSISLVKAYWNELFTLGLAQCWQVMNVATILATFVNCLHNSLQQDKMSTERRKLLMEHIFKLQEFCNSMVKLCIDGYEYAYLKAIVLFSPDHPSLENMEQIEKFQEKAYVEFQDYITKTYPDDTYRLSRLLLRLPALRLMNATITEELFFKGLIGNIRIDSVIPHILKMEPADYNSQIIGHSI
UniProt P55055, whole entry, looked up: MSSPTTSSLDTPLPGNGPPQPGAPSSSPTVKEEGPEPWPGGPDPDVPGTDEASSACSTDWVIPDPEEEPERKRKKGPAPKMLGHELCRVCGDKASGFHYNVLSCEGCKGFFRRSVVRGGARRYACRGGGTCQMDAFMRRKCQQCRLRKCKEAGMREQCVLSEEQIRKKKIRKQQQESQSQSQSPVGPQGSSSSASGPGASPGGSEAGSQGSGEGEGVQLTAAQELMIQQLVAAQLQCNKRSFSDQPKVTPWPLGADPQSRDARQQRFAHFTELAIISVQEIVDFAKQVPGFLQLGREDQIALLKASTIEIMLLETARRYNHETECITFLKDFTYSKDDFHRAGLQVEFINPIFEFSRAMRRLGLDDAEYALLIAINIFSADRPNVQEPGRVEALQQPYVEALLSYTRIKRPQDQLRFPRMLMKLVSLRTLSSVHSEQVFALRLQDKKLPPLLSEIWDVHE
UniProt Q9NQ35: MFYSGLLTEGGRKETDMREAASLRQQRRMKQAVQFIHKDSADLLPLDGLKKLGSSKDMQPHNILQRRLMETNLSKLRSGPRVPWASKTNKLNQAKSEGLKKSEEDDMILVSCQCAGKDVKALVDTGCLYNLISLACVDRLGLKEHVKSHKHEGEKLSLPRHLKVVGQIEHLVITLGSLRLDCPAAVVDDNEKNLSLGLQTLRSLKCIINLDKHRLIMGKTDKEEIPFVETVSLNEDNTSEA
UniProt Q92686, whole entry, looked up: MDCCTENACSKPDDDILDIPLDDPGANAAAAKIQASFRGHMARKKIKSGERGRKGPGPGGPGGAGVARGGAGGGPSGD
UniProt Q5C9Z4: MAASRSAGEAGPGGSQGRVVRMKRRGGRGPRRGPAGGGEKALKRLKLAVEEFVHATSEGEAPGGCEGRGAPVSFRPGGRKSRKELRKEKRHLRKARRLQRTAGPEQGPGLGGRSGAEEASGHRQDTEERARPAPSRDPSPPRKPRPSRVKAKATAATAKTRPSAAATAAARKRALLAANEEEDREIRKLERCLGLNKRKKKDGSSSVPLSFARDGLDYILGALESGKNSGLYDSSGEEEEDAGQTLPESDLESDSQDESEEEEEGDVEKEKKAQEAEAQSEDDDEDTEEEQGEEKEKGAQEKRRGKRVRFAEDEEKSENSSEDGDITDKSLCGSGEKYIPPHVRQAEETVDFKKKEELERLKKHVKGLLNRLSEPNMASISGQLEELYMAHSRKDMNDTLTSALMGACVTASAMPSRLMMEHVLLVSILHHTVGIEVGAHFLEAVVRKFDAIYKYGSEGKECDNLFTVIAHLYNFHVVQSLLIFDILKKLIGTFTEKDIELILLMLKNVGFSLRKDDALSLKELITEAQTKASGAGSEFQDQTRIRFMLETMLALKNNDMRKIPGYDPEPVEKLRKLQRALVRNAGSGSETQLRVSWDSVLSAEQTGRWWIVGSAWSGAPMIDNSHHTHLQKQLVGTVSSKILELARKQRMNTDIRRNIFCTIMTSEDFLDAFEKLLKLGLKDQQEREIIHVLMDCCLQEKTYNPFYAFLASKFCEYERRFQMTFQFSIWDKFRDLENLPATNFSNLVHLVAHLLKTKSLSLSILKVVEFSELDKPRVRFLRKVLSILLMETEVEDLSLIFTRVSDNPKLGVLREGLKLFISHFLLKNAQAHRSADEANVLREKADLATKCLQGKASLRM
UniProt P48552: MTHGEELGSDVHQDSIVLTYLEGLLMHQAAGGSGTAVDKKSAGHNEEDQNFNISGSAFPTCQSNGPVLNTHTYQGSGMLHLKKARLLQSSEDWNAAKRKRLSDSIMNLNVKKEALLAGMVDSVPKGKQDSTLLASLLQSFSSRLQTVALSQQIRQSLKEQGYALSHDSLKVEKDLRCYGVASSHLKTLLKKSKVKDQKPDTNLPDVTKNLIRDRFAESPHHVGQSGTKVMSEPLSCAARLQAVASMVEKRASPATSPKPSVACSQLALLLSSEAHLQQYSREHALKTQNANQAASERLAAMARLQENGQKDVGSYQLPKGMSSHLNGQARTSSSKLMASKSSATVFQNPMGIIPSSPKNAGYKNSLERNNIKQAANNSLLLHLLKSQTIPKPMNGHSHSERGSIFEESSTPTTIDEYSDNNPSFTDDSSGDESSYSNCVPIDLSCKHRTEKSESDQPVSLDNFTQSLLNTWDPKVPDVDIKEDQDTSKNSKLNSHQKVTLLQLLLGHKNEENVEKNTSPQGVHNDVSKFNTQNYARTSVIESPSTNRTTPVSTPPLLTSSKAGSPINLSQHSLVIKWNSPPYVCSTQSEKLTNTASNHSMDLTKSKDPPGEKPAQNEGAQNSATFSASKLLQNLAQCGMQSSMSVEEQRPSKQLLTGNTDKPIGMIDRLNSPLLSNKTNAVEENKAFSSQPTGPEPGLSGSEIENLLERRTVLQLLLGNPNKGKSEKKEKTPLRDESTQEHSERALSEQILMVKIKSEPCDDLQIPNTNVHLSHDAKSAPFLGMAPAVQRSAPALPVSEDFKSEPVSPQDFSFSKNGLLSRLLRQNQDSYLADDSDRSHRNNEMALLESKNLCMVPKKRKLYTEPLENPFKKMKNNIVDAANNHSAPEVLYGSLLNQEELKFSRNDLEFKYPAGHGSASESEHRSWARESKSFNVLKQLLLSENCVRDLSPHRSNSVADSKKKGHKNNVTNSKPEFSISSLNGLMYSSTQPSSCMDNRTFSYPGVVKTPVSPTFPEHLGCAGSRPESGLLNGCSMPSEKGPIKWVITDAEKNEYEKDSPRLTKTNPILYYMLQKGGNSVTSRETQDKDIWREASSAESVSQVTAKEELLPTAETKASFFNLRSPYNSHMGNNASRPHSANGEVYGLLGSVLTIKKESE
UniProt Q8WTW4: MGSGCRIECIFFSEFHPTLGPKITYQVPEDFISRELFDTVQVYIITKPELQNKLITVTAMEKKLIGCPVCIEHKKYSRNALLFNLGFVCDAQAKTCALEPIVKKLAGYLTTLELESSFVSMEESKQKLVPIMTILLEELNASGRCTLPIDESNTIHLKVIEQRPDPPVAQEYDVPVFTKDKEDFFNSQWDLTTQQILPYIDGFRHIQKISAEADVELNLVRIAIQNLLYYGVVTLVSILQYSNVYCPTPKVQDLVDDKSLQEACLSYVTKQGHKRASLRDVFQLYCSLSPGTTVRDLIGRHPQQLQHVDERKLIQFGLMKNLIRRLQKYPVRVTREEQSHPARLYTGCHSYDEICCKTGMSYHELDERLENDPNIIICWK
UniProt P49757: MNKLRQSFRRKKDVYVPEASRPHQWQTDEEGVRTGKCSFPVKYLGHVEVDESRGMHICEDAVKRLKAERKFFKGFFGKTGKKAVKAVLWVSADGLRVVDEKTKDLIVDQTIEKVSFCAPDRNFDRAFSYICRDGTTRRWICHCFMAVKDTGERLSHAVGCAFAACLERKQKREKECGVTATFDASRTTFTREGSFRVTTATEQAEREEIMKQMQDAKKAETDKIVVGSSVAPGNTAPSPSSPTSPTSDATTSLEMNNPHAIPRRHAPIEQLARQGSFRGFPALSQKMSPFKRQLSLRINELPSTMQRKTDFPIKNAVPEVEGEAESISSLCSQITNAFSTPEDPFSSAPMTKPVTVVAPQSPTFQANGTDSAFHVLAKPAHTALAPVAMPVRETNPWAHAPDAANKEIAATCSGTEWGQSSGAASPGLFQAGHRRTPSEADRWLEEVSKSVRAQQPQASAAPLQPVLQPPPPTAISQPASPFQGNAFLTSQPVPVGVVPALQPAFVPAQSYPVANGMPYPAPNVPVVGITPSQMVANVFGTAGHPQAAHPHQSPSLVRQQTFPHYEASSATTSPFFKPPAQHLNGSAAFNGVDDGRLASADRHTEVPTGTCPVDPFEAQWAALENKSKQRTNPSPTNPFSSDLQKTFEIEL

Tests used:
Assay in all cases: log2 fold change, soluble protein after heating vs DMSO (PISA); higher = thermal stabilisation; K562 lysate, 10 uM; active = over 0.2 and 3.5 SD of the protein, either way, in both replicates (recomputed)
[1] = compound: C1=CC2=NC=CN=C2C=C1/C=C/3\C(=O)NC(=O)S3
Summary of the method: (§1)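 Quantification was by TMTpro 16plex LC-MS/MS with equalised channel sums, applied to the supernatant after 21,000xg for 90 min. Samples were crude K562 extract at 1 mg/mL protein in PBS pH 7.4 with 1 mM MgCl2, treated with 10 μM compound for 30 min, heated for 3 min across 48°C-58°C, pooled and brought to 0.5% NP-40 at 4°C. Values are log-two fold changes in thermal stability relative to solvent controls, from duplicates.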

[2] = compound: C1CCN(C1)C(=O)NC2=CC=CC(=C2)NC3=NC=C(C(=N3)NCCC4=CN=CN4)Br
Summary of the method: as §1

[3] = compound: C1CN(CCC1(CC2=CC=C(C=C2)Cl)N)C3=NC=NC4=C3C=CN4
Summary of the method: as §1

ibrutinib = compound: C=CC(=O)N1CCC[C@@H](n2nc(-c3ccc(Oc4ccccc4)cc3)c3c(N)ncnc32)C1 [ibrutinib]
Summary of the method: as §1

[4] = compound: CC1=C(C2=C(C=C1)C(=O)C3=CC=CC=C3N2CCCN)C
Summary of the method: as §1

[5] = compound: CC1=C(C=C(C=C1)NC(=O)C2=CC(=CC=C2)C(C)(C)C#N)NC3=CC4=C(C=C3)N=CN(C4=O)C
Summary of the method: as §1

[6] = compound: C1=CC=C(C=C1)C2=NC(=C(N2)C3=CC=NC=C3)C4=CC(=C(C=C4)Cl)O
Summary of the method: as §1

IRAK-1-4 Inhibitor I = compound: C1COCCN1CCN2C3=CC=CC=C3N=C2NC(=O)C4=CC(=CC=C4)[N+](=O)[O-] [IRAK-1-4 Inhibitor I]
Summary of the method: as §1

ralimetinib = compound: CC(C)(C)Cn1c(N)nc2ccc(-c3[nH]c(C(C)(C)C)nc3-c3ccc(F)cc3)nc21 [ralimetinib]
Summary of the method: as §1

[7] = compound: CC(C)(O)CC(=O)NCCn1ccc2ncnc(Nc3ccc(Oc4cccc(C(F)(F)F)c4)c(Cl)c3)c21
Summary of the method: as §1

[8] = compound: CC1=C(C=C(C=C1)NC(=O)C2=CC(=CC=C2)N(C)C)NC(=O)C3=CC=C(C=C3)O
Summary of the method: as §1

[9] = compound: C/C(=N\NC(=O)C1=CC(=CC=C1)S(=O)(=O)N2CCOCC2)/C3=C(C=CC(=C3)Cl)O
Summary of the method: as §1

[10] = compound: C1=CC2=C(C=CC(=C2)/C=C\3/C(=O)NC(=NCC4=CC=CS4)S3)N=C1
Summary of the method: as §1

[11] = compound: C1=CC=C2C(=C1)C3=NNC4=CC=CC(=C43)C2=O
Summary of the method: as §1

[12] = compound: CC(=O)c1cnc2ccc(-c3cc(Cl)c(O)c(Cl)c3)nc2c1N[C@H]1CC[C@H](CN(C)C)CC1
Summary of the method: as §1

[13] = compound: CC1=C(C(CC(=O)N1)C2=CC=C(C=C2)C(F)(F)F)C(=O)NC3=C(C=C4C(=C3)C=NN4)F
Summary of the method: as §1

[14] = compound: CC1=CC=C(C=C1)SC2=C3C=C(SC3=CN=C2)C(=O)N
Summary of the method: as §1

erlotinib = compound: C#Cc1cccc(Nc2ncnc3cc(OCCOC)c(OCCOC)cc23)c1 [erlotinib]
Summary of the method: as §1

[15] = compound: C1=CC(=CC=C1C2=NC3=C(N2)C=C(C=C3)C(=O)N)OC4=CC=C(C=C4)Cl
Summary of the method: as §1

[16] = compound: CC(C)C1=C2N=C(C=C(N2N=C1)NCC3=CC=CC=C3)NCCCCCCN
Summary of the method: as §1

Measured: log2 fold change

NPLOC4 (UniProt I3L3I1)
inactive: [1] -0.029 | [2] -0.128 | [3] 0.046 | ibrutinib -0.022 | [4] -0.169 | [5] 0.447

NUB1 (UniProt H7C5N1)
inactive: [6] 0.163 | IRAK-1-4 Inhibitor I 0.183 | ralimetinib 0.133 | [7] -0.146 | [8] -0.131

NSD2 (UniProt O96028)
inactive: [9] 0.008 | [10] 0.225 | [1] 0.036 | [6] -0.02 | [11] -0.003 | [2] 0.15 | [3] -0.102 | IRAK-1-4 Inhibitor I -0.233 | ibrutinib 0.184 | [12] 0.084 | ralimetinib -0.144 | [7] -0.155 | [13] -0.238 | [5] 0.065 | [8] 0.128 | [14] 0.059

NOMO3 (UniProt P69849)
inactive: erlotinib 0.035 | [15] -0.045 | [6] -0.004 | IRAK-1-4 Inhibitor I 0.001 | [12] -0.15 | ralimetinib -0.032 | [7] 0.019 | [16] 0.015 | [13] -0.009 | [4] 0.033 | [5] 0.04 | [8] 0.009 | [14] -0.062

NSDHL (UniProt C9JDR0)
inactive: [12] 0.047 | [13] 0.031 | [14] 0.038

NR1D1 (UniProt P20393)
inactive: [2] 0.09 | [3] 0.196

NMRK1 (UniProt Q9NWW6)
inactive: [5] -0.006

NUB1 isoform 2 (UniProt Q9Y5A7)
inactive: [5] 0.075

NMNAT3 (UniProt Q96T66)
inactive: [1] 0.087 | ibrutinib 0.023

NUDT5 (UniProt C9JYY9)
inactive: erlotinib 0.098 | [15] -0.157 | [2] -0.069 | [3] 0.034 | [16] -0.111 | [13] -0.05

Retrieved one by one from the entries so far, 2 records:
NR1D1 (UniProt P20393)
inactive: [2] 0.09 | [3] 0.196

NPLOC4 (UniProt I3L3I1)
inactive: [1] -0.029 | [2] -0.128 | [3] 0.046 | ibrutinib -0.022 | [4] -0.169 | [5] 0.447

Further records

NT5C (UniProt J3KSX6)
inactive: [1] 0.039 | ibrutinib -0.07 | [12] 0.072 | [14] 0.018

NRSN2 (UniProt Q9GZP1)
inactive: [4] 0.02

NUFIP1 (UniProt Q9UHK0)
inactive: [1] 0.014 | [6] 0.068 | [2] 0.084 | [3] -0.033 | IRAK-1-4 Inhibitor I -0.047 | ibrutinib 0.093 | ralimetinib 0.299 | [7] -0.034 | [13] 0.036 | [4] 0.007 | [5] 0.085 | [8] 0.033

NRDE2 (UniProt Q9H7Z3)
inactive: [1] 0.084 | [6] -0.087 | IRAK-1-4 Inhibitor I 0.25 | ibrutinib 0.227 | [12] 0.086 | ralimetinib 0.288 | [7] -0.244 | [13] -0.025 | [4] -0.07 | [8] -0.158 | [14] -0.005

NTRK1 (UniProt P04629)
inactive: [9] 0.105 | [10] -0.305 | [6] -0.087 | [11] 0.082 | [2] 0.102 | [3] -0.299 | IRAK-1-4 Inhibitor I -0.011 | ralimetinib -0.047 | [7] 0.069 | [4] -0.085 | [5] -0.045 | [8] 0.078

NTMT1 (UniProt S4R338)
inactive: [12] -0.182 | [14] 0.058

NR2C1 (UniProt P13056)
inactive: [9] -0.09 | [10] -0.055 | [1] 0.113 | [11] -0.002 | ibrutinib -0.019 | [13] -0.039 | [5] -0.195

NR1H2 (UniProt P55055)
inactive: [6] -0.1 | IRAK-1-4 Inhibitor I -0.077 | ralimetinib 0.085 | [7] 0.041 | [8] -0.069

NRIP3 (UniProt Q9NQ35)
inactive: [9] 0.048 | [10] 0.29 | [11] -0.199 | [2] 0.046 | [3] 0.099

NRGN (UniProt Q92686)
inactive: [1] 0.08 | ibrutinib 0.011 | [13] 0.125 | [4] 0.037 | [5] 0.022

NOM1 (UniProt Q5C9Z4)
inactive: [9] -0.121 | [10] 0.126 | [11] 0.111 | [2] -0.23 | [3] 0.12 | [12] 0.061 | [13] -0.015 | [4] -0.055 | [5] 0.032 | [14] 0

NME3 (UniProt H3BPR2)
inactive: [12] 0.254 | [14] -0.097

NT5C2 (UniProt Q5JUV3)
inactive: [2] 0.025 | [3] 0.048 | [4] 0.008 | [5] 0.059

NOL4L (UniProt Q96MY1)
inactive: erlotinib 0.003 | [15] -0.067 | [6] 0.05 | [2] 0.129 | [3] -0.023 | IRAK-1-4 Inhibitor I 0.02 | [12] -0.043 | ralimetinib 0.088 | [7] 0.028 | [16] 0.031 | [4] 0.008 | [8] -0.046 | [14] 0.025

NOCT (UniProt Q9UK39)
inactive: erlotinib -0.129 | [15] 0.061 | [6] 0.1 | [2] -0.134 | [3] 0.06 | IRAK-1-4 Inhibitor I 0.007 | [12] 0.001 | ralimetinib 0.068 | [7] -0.06 | [16] 0.014 | [13] 0.004 | [4] 0.114 | [5] -0.012 | [8] -0.066 | [14] 0.064

NRIP1 (UniProt P48552)
inactive: erlotinib 0.031 | [15] 0 | [1] -0.033 | [6] 0.024 | IRAK-1-4 Inhibitor I 0.114 | ibrutinib -0.018 | [12] -0.055 | ralimetinib -0.05 | [7] -0.165 | [16] -0.007 | [13] 0.093 | [4] -0.217 | [5] 0.175 | [8] -0.005 | [14] -0.102

NPRL2 (UniProt Q8WTW4)
inactive: [13] -0.076 | [5] 0.039

NUMB isoform 2 (UniProt P49757)
inactive: [6] 0.304 | IRAK-1-4 Inhibitor I 0.021 | ralimetinib 0.059 | [7] 0.12 | [13] 0.154 | [4] -0.245 | [8] -0.062

NR2F6 (UniProt P10588)
inactive: [6] -0.031 | [2] 0.136 | [3] 0.062 | IRAK-1-4 Inhibitor I -0.013 | ralimetinib -0.024 | [7] -0.299 | [13] 0.213 | [4] 0.06 | [5] -0.078 | [8] 0.002

NUDT14 (UniProt O95848)
inactive: erlotinib 0.161 | [15] -0.186 | [1] -0.106 | [6] -0.182 | IRAK-1-4 Inhibitor I 0.029 | ibrutinib 0.008 | [12] -0.022 | ralimetinib -0.214 | [7] -0.119 | [16] 0.178 | [4] -0.068 | [5] -0.042 | [8] -0.024 | [14] -0.09

NUBPL (UniProt Q8TB37)
inactive: [9] 0.141 | [10] -0.01 | [11] 0.13 | [2] 0.112 | [3] 0.368 | [4] -0.098
